Patent US12233041B2, “Disulfonate stilbenes for use in the treatment of proliferative diseases” (UNIVERSITÉ DE NANTES, priority 2018, dated 2025)
Some results were stated once for a whole list of compounds, not compound by compound.

system: DU145 prostate cancer cell line; assay: Cytotoxicity, MTT assay; format: cell-based; conditions: DU-145 cells, 50 μM for 3 days; FIG. 6
Protocol: Prostate cancer cells DU145 (carcinoma) and fibroblast cells were cultured in […] (RPMI 1640 medium) supplemented with 10% fetal bovine serum (FBS) and 1% penicillin/streptomycin, and were grown at 37° C. with 5% CO2.
Tested molecules were dissolved and stored in DMSO at 20 mM concentration.
DU145 and fibroblast cells were seeded at 5×10^3 cells/well in 100 μl of medium in standard 96-well plates. The plates were incubated 24 h at 37° C. at an atmosphere of 5% CO2. Molecule solutions diluted in DMSO were serially diluted by RPMI 1640 medium from 60 μM to 0.02 μM and were added in 100 μl RPMI in quadruplicate.
After 72 h of incubation, 20 μL of 5 mg mL-1 MTT was added to each well according to the manufacturer's instructions. After 2 h of incubation at 37° C., the medium was removed, and 200 μl DMSO was added to each well to dissolve formazan crystals. The absorbance at 540 nm of each well was then monitored using an EnSpire multimode plate reader. Absorbance of each well was expressed as percentage of the control (wells with untreated cells), and the 50% inhibitory concentration (IC50) was determined. IC50 values are defined as the concentration of drug causing 50% growth inhibition. Results represent the average values of at least three experiments. All data were expressed as the mean values±standard deviation. The IC50 values were calculated by linear regression analysis of the concentration-log response curves using the software GraphPad InStat 3.0.
The DU145 prostate cancer cell line was used to evaluate and compare the toxicity of small molecules being the stilbene derivatives of the invention B-1 to B-3 and reference compound BPQ.

| SMILES | cytotoxic effect |
| --- | --- |
| [N-]=[N+]=Nc1ccc(/C=C/c2ccc(N=[N+]=[N-])cc2S(=O)(=O)[O-])c(S(=O)(=O)[O-])c1.[Na+].[Na+] [B-1, Sodium (E)-6,6′-(ethene-1,2-diyl)bis(3-azidobenzenesulfonate)] | no cytotoxic effect |
| N#Cc1ccc(/C=C/c2ccc(C#N)cc2S(=O)(=O)[O-])c(S(=O)(=O)[O-])c1.[Na+].[Na+] [B-2, Sodium (E)-6,6′-(ethene-1,2-diyl)bis(3-cyanobenzenesulfonate)] | no cytotoxic effect |
| O=S(=O)([O-])c1cc(I)ccc1/C=C/c1ccc(I)cc1S(=O)(=O)[O-].[K+].[K+] [B-3, Potassium (E)-6,6′-(ethene-1,2-diyl)bis(3-iodobenzenesulfonate)] | no cytotoxic effect |
